The source of these data is paper PMC10716131.

Sequences of proteins named here, by UniProt entry; tags and fusion partners are left off. A change or cut given only in a name is not applied to a line headed by its entry.
UniProt Q96SW2: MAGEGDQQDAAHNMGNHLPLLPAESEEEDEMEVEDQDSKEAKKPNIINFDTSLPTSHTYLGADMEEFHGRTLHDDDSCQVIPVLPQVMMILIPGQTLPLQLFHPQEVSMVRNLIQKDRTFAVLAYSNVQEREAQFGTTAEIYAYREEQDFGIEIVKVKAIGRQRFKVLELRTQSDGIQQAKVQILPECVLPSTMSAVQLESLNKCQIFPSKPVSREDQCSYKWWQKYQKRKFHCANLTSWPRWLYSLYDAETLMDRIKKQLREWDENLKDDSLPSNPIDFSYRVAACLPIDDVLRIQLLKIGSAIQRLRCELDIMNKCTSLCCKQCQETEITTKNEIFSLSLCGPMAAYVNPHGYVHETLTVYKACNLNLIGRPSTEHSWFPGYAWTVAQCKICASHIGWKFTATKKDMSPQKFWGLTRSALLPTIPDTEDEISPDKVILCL
UniProt Q16531: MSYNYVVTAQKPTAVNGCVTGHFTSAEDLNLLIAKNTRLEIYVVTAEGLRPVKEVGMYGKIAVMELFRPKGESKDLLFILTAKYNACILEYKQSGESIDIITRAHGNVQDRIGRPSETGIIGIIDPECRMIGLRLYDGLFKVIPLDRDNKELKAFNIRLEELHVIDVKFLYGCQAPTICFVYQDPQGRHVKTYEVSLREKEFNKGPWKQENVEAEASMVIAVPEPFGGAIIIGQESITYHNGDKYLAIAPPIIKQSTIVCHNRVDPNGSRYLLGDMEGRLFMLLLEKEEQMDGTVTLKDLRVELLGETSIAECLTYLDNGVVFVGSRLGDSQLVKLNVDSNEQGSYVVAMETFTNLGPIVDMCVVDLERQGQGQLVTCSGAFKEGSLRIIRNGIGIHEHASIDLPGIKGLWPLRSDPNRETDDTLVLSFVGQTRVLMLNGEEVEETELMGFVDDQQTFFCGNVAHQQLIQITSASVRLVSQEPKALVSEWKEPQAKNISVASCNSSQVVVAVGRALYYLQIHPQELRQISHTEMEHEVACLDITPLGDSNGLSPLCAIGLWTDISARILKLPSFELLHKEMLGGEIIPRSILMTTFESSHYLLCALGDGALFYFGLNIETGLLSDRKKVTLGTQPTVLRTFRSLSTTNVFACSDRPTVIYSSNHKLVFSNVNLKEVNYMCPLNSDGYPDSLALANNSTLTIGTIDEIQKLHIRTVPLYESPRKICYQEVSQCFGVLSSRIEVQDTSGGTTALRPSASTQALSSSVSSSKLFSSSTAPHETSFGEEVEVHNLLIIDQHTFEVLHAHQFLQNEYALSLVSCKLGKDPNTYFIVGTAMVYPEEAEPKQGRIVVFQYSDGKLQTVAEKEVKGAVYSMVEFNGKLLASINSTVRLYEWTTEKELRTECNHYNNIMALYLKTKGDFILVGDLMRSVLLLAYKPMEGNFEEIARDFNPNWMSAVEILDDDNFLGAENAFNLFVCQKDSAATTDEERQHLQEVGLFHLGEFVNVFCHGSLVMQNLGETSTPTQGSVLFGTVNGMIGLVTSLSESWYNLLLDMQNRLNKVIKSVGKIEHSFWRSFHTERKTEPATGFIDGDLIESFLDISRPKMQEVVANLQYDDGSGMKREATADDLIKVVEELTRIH

For assay [1], the target named is T1, DDB1:CRBN complex, full-length human CRBN (residues 1–442) with N-terminal biotinylated Avi-tag, co-expressed with human DDB1 (residues 1–1140) (human) (UniProt Q96SW2+Q16531). The assay can be described thus: SPR; DDB1:N-avi-biotin-CRBN immobilised on a streptavidin sensor (~5000–7000 RU), Biacore 8k, ABA method; SALL4 zinc fingers in 2X dilution series with 5 μM pomalidomide throughout; PBS pH 7.2, 5% glycerol, total NaCl ~300 mM, 0.01% P20, 1 mM TCEP, 0.05% DMSO; 15 °C; 30 µL/minute; 1:1 kinetic modelling; both purified.

For assay [2], the target named is T1, DDB1:CRBN complex, full-length human CRBN (residues 1–442) with N-terminal biotinylated Avi-tag, co-expressed with human DDB1 (residues 1–1140) (human). The assay can be described thus: SPR; DDB1:N-avi-biotin-CRBN immobilised on a streptavidin sensor (~5000–7000 RU), Biacore 8k, ABA method; SALL4 zinc fingers in 2X dilution series with 5 μM CC-220 throughout; PBS pH 7.2, 5% glycerol, total NaCl ~300 mM, 0.01% P20, 1 mM TCEP, 0.05% DMSO; 15 °C; 30 µL/minute; 1:1 kinetic modelling; both purified. For orientation: Surface plasmon resonance follows binding to a sensor surface in real time, without labels.

Results are given in words; binding and its absence hold for the method and conditions named.

Turning to DVKPKDEAALYKHKCKYCSKVFGTDSSLQIHLRSHTGERP (domain or fragment, UniProt Q9UJQ4 370-409) [Human SALL4 ZF1(370–409)], the binding entry in assay [1] and in assay [2] was “no binding (tested: 25 μM)” in each case.
